Results as given in paper PMC12858073.
No constants are given. Whether binding was seen depends on the method and setting. Binding seen in cells or lysates may run through a third protein. Some entries that bind do so weakly or less than the wild type. Blank lines part the entries; values can stand above or below the binder they belong to.

Target: T1, THOC5 (mouse (endogenous in C2C12)) (UniProt Q8BKT7)
T1 sequence: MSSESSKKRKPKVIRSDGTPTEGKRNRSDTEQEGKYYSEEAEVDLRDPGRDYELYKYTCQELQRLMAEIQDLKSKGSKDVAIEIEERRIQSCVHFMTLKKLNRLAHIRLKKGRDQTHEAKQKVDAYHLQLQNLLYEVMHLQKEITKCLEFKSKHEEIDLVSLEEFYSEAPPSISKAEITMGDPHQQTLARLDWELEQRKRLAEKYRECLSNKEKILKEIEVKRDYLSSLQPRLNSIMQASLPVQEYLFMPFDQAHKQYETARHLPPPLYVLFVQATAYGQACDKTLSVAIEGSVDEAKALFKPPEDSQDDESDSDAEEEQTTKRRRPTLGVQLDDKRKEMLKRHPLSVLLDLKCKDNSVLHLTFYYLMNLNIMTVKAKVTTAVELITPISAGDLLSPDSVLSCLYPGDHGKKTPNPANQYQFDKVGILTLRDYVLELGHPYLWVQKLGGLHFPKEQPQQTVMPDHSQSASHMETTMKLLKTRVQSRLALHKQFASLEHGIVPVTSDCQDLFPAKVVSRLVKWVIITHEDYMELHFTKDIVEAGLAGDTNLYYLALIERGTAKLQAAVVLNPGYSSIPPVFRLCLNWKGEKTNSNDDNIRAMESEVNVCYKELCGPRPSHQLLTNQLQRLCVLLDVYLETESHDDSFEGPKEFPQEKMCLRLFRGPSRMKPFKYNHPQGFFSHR
Assay: co-IP; C2C12 myotubes crosslinked with 2% formaldehyde 10 min; lysate in IP buffer (50 mM Tris-HCl pH 7.4, 150 mM NaCl, 0.5% Igepal); precipitation with anti-THOC5 antibody on protein-A beads; immunoblot with anti-BirA to detect PABPN1-TurboID

- binding: binds
B1: Ala10 PABPN1-TurboID (protein, UniProt Q8CCS6 1-302)
chain: MAAAAAAAAAAGAAGGRGSGPGRRRHLVPGAGGEAGEGDPGGAGDYGNGLESEELEPGELLPEPEPEEEPPRPRAPPGAPGPGPGSGAPGSQEEEEEPGLVEADPGDGAIEDPELEAIKARVREMEEEAEKLKELQNEVEKQMNMSPPPGNAGPVIMSLEEKMEADARSIYVGNVDYGATAEELEAHFHGCGSVNRVTILCDKFSGHPKGFAYIEFSDKESVRTSLALDESLFRGRQIKVIPKRTNRPGISTTDRGFPRSRYRARTTNYNSSRSRFYSGFNSRPRGRIYRGRARATSWYSPY

- binding: binds
B2: Ala17 PABPN1-TurboID (protein, UniProt Q8CCS6 1-302)
chain: MAAAAAAAAAAAAAAAAAGAAGGRGSGPGRRRHLVPGAGGEAGEGDPGGAGDYGNGLESEELEPGELLPEPEPEEEPPRPRAPPGAPGPGPGSGAPGSQEEEEEPGLVEADPGDGAIEDPELEAIKARVREMEEEAEKLKELQNEVEKQMNMSPPPGNAGPVIMSLEEKMEADARSIYVGNVDYGATAEELEAHFHGCGSVNRVTILCDKFSGHPKGFAYIEFSDKESVRTSLALDESLFRGRQIKVIPKRTNRPGISTTDRGFPRSRYRARTTNYNSSRSRFYSGFNSRPRGRIYRGRARATSWYSPY
